1 substance from article doi:10.1101/585497 can be followed below.

The chains behind the UniProt entries cited, without tags or fusion partners. Where a name states a change or a piece, a line headed by the entry shows the natural chain unless it says otherwise.
UniProt P25963, whole entry, stated change not applied: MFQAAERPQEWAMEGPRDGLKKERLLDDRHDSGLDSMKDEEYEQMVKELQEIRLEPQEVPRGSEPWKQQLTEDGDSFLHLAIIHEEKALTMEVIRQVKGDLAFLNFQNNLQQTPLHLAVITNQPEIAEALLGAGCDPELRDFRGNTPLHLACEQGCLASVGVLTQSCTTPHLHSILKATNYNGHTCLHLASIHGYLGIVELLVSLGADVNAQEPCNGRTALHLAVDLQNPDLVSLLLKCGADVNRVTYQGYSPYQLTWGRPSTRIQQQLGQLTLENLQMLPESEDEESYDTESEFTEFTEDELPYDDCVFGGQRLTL

Results are given in words; binding and its absence hold for the method and conditions named. In cells and extracts the contact can be indirect. These calls come from enrichment with a bait or labelling near it, and not all partners need be listed.

This assay addresses HA-IκBα (pCMV4-3HA-IκBα) (UniProt P25963). The assay can be described thus: proximity labelling.

With “Nup153 (endogenous, HEK293T) (from UniProt P49790 1-1475)”, the binding result is “binds”.
